PubChem BioAssay AID330 (DTP/NCI, 2004)
The list does not hold the whole screen: it gathers tests that were run many times, whatever their T/C, doses with no T/C, and many T/C values between a quarter and a half above the control. Further doses and runs are listed elsewhere. T/C gives the treated animals as a percentage of the vehicle group. Some entries give survivors of the animals treated and no T/C: the source holds a T/C of zero for them, seemingly a mark for toxic or unscored doses. Some doses without a T/C left all or most animals alive at the check, yet need not have been tolerated: the source hardly ever lists a survival T/C far under the control, and the zero likely stands for such cases as well. Counts of survivors are from the toxicity check (mostly the fifth day) where no day follows; animals may have died later. Schedules are NCI's codes, read here as Q, the interval in days (D) or hours (H), X, the number of doses. Some doses were run more than once; the values are given in rising order. For survival time, this PubChem deposit counts one and a half times the control or more as active, and values a quarter to a half above the control carry no call in these data; other NCI protocols may use other cut-offs.

Test system: P388 leukemia ip, CD2F1 mice, survival T/C
Assay: NCI In Vivo Anticancer Drug Screen. Data for tumor model P388 Leukemia (intraperitoneal) in CD2F1 (CDF1) mice
Conditions: T/C endpoint: median survival time, higher T/C = longer survival
[1] = dose: 50.0 mg/kg/injection, schedule: Q01DX009 (ip), vehicle: saline
[2] = dose: 200.0 mg/kg/injection, schedule: Q01DX005 (ip), vehicle: saline
[3] = dose: 100.0 mg/kg/injection, schedule: Q01DX001 (ip), vehicle: saline with Tween-80
[4] = dose: 12.5 mg/kg/injection, schedule: Q01DX009 (ip), vehicle: saline
[5] = dose: 25.0 mg/kg/injection, schedule: Q01DX009 (ip), vehicle: saline
[6] = dose: 100.0 mg/kg/injection, schedule: Q01DX009 (ip), vehicle: saline
[7] = dose: 200.0 mg/kg/injection, schedule: Q01DX009 (ip), vehicle: saline
[8] = dose: 50.0 mg/kg/injection, schedule: Q01DX009 (ip), vehicle: saline with Tween-80
[9] = dose: 200.0 mg/kg/injection, schedule: Q01DX005 (ip), vehicle: Klucel (hydroxypropylcellulose) (HPC)
[10] = dose: 50.0 mg/kg/injection, schedule: Q01DX005 (ip), vehicle: Klucel (hydroxypropylcellulose) (HPC)
[11] = dose: 100.0 mg/kg/injection, schedule: Q01DX005 (ip), vehicle: Klucel (hydroxypropylcellulose) (HPC)
[12] = dose: 100.0 mg/kg/injection, schedule: Q01DX005 (ip), vehicle: saline with Tween-80
[13] = dose: 200.0 mg/kg/injection, schedule: Q01DX005 (ip), vehicle: saline with Tween-80

COc1ccc2nc3cc(Cl)ccc3c(NN3CCN(CCO)CC3)c2c1
survivor count (dose: 0.09 mg/kg/injection, schedule: Q01DX009 (ip), vehicle: DMSO): 5 of 5 | survivor count (dose: 3.0 mg/kg/injection, schedule: Q01DX009 (ip), vehicle: DMSO): 6 of 6 | survivor count (dose: 6.0 mg/kg/injection, schedule: Q01DX009 (ip), vehicle: DMSO): 3 of 6 | survivor count (dose: 12.5 mg/kg/injection, schedule: Q01DX009 (ip), vehicle: DMSO): 5 of 6 | survivor count (dose: 25.0 mg/kg/injection, schedule: Q01DX009 (ip), vehicle: DMSO): 5 of 6 | survivor count (dose: 50.0 mg/kg/injection, schedule: Q01DX009 (ip), vehicle: DMSO): 5 of 6 | survivor count (dose: 100.0 mg/kg/injection, schedule: Q01DX009 (ip), vehicle: DMSO): 5 of 6 | survivor count (dose: 200.0 mg/kg/injection, schedule: Q01DX009 (ip), vehicle: DMSO): 5 of 6

CCNc1nncs1
T/C [1]: 128 % of control | T/C (dose: 75.0 mg/kg/injection, schedule: Q01DX009 (ip), vehicle: saline): 149 % of control

CCCC(O)CNCc1ccnc2ccc(OC)cc12 (stereo unspecified)
survivor count [2]: 0 of 5

O=c1c2c(oc3ccccc13)Oc1oc3ccccc3c(=O)c1C2c1ccc2c(c1)OCO2
survivor count (dose: 60.0 mg/kg/injection, schedule: Q01DX005 (ip), vehicle: saline with Tween-80): 6 of 6 | survivor count (dose: 120.0 mg/kg/injection, schedule: Q01DX005 (ip), vehicle: saline with Tween-80): 6 of 6 | survivor count (dose: 240.0 mg/kg/injection, schedule: Q01DX005 (ip), vehicle: saline with Tween-80): 6 of 6

CCCCCCCCC(CCc1ccccc1)CCc1ccccc1
survivor count [3]: 6 of 6

COC1=CC(=O)C=C(CO)C1=O
survivor count [4]: 4 of 6 | survivor count [5]: 0 of 6 | survivor count [1]: 0 of 6 | survivor count [6]: 0 of 6 | survivor count [7]: 0 of 6

CCOC(=O)C(=CC(CC)(C(=O)OCC)C(=O)OCC)C(=O)OCC
T/C (dose: 400.0 mg/kg/injection, schedule: Q04DX003 (ip), vehicle: saline with Tween-80): 125 % of control

CC(=O)OC1C=CC(O)N(C(C)=O)C1SC(C)(C)C (stereo unspecified)
survivor count (dose: 100.0 mg/kg/injection, schedule: Q01DX009 (ip), vehicle: distilled water + Tween-80 + alcohol): 0 of 6 | survivor count (dose: 200.0 mg/kg/injection, schedule: Q01DX009 (ip), vehicle: distilled water + Tween-80 + alcohol): 1 of 6 | survivor count (dose: 400.0 mg/kg/injection, schedule: Q01DX009 (ip), vehicle: distilled water + Tween-80 + alcohol): 0 of 6

CC1(C)O[C@@H]2C[C@H]3[C@@H]4CCC5=CC(=O)C=C[C@]5(C)[C@@]4(F)[C@@H](O)C[C@]3(C)[C@]2(C(=O)CO)O1
survivor count [8]: 6 of 6

Cc1ccc(C2(c3ccc(C)cc3)CCCCCC2=O)cc1
survivor count [9]: 6 of 6

C/C=C(\C)C(=O)OC1CCC2(C)C3CCC4C5(O)CC(O)C6(O)C(CN7CC(C)CCC7C6(C)O)C5(O)CC42OC13O (stereo unspecified)
survivor count (dose: 12.5 mg/kg/injection, schedule: Q01DX005 (ip), vehicle: Klucel (hydroxypropylcellulose) (HPC)): 0 of 5 | survivor count (dose: 12.5 mg/kg/injection, schedule: Q01DX005 (ip), vehicle: saline): 0 of 5 | survivor count (dose: 25.0 mg/kg/injection, schedule: Q01DX005 (ip), vehicle: Klucel (hydroxypropylcellulose) (HPC)): 0 of 5 | survivor count (dose: 25.0 mg/kg/injection, schedule: Q01DX005 (ip), vehicle: saline): 0 of 5 | survivor count [10]: 0 of 5 | survivor count (dose: 50.0 mg/kg/injection, schedule: Q01DX005 (ip), vehicle: saline): 0 of 5 | survivor count [11]: 0 of 5 | survivor count (dose: 100.0 mg/kg/injection, schedule: Q01DX005 (ip), vehicle: saline): 0 of 5 | survivor count [9]: 0 of 5 | survivor count [2]: 0 of 5

CCC(=O)c1cc2ccccc2c2ccccc12
survivor count [12]: 0 of 5 | survivor count [13]: 0 of 5

COC(=O)CCC(=O)C(C#N)c1ccc(CC#N)cc1 (stereo unspecified)
survivor count [12]: 3 of 6 | survivor count [13]: 0 of 6

CC(=O)c1cc(-c2ccccn2)c(=O)n2ccccc12
survivor count (dose: 100.0 mg/kg/injection, schedule: Q01DX009 (ip), vehicle: saline with Tween-80): 6 of 6 | survivor count (dose: 200.0 mg/kg/injection, schedule: Q01DX009 (ip), vehicle: saline with Tween-80): 3 of 6

COc1cc(NC(=O)CCl)ccc(=O)c1
survivor count [8]: 4 of 6

OCCC1CCN(CC/C=C2/c3ccc(F)cc3Sc3ccc(C(F)(F)F)cc32)CC1
survivor count (dose: 0.39 mg/kg/injection, schedule: Q01DX001 (ip), vehicle: saline): 4 of 6 | survivor count (dose: 0.78 mg/kg/injection, schedule: Q01DX001 (ip), vehicle: saline): 3 of 6 | survivor count (dose: 1.56 mg/kg/injection, schedule: Q01DX001 (ip), vehicle: saline): 0 of 6 | survivor count (dose: 3.12 mg/kg/injection, schedule: Q01DX001 (ip), vehicle: saline): 0 of 6 | survivor count [3]: 0 of 6 | survivor count (dose: 200.0 mg/kg/injection, schedule: Q01DX001 (ip), vehicle: saline with Tween-80): 0 of 6 | survivor count (dose: 400.0 mg/kg/injection, schedule: Q01DX001 (ip), vehicle: saline with Tween-80): 0 of 6 | T/C (dose: 100.0 micrograms/kg/injection, schedule: Q01DX001 (ip), vehicle: saline): 128 % of control | T/C (dose: 200.0 micrograms/kg/injection, schedule: Q01DX001 (ip), vehicle: saline): 130 and 135 % of control | T/C (dose: 400.0 micrograms/kg/injection, schedule: Q01DX001 (ip), vehicle: saline): 135 % of control

O=NNc1ccc(-c2ccccc2)cn1
T/C (dose: 6.25 mg/kg/injection, schedule: Q01DX009 (ip), vehicle: saline): 126 % of control | T/C [4]: 137 % of control | survivor count [4]: 1 of 6 | survivor count [5]: 0 of 6 | survivor count [1]: 0 of 6

COc1cccc2c1C(=O)c1c(O)c3c(c(O)c1C2=O)C[C@@](O)(C(O)CO)C[C@@H]3OC1CC(N)C(O)C(C)O1 (stereo partly specified)
T/C (dose: 0.2 mg/kg/injection, schedule: Q01DX009 (ip), vehicle: water): 126 % of control | T/C (dose: 0.39 mg/kg/injection, schedule: Q01DX009 (ip), vehicle: water): 142 % of control | survivor count (dose: 12.5 mg/kg/injection, schedule: Q01DX009 (ip), vehicle: water): 4 of 4 | T/C (dose: 12.5 mg/kg/injection, schedule: Q04DX003 (ip), vehicle: water): 130 % of control | survivor count (dose: 25.0 mg/kg/injection, schedule: Q01DX009 (ip), vehicle: water): 3 of 4 and 6 of 6 | survivor count (dose: 32.0 mg/kg/injection, schedule: Q01DX009 (ip), vehicle: water): 6 of 6 | survivor count (dose: 100.0 mg/kg/injection, schedule: Q04DX003 (ip), vehicle: water): 2 of 6

CC12CCC(OC3OC(CO)C(O)C(O)C3O)C=C1CCC1C2CCC2(C)C(c3ccc(=O)oc3)CCC12 (stereo unspecified)
survivor count [10]: 0 of 6 and 1 of 6 | survivor count [11]: 0 of 6 | survivor count [9]: 0 of 6

CC1(C)N=C(NN=C2CCCCC2)SP1(=O)NNc1ncccn1 (stereo unspecified)
survivor count (dose: 120.0 mg/kg/injection, schedule: Q01DX005 (ip), vehicle: Klucel (hydroxypropylcellulose) (HPC)): 3 of 6 | survivor count (dose: 240.0 mg/kg/injection, schedule: Q01DX005 (ip), vehicle: Klucel (hydroxypropylcellulose) (HPC)): 0 of 6

c1ccc2c(CN3CCCCC3)c[nH]c2c1
survivor count (dose: 200.0 mg/kg/injection, schedule: Q04DX003 (ip), vehicle: saline with Tween-80): 2 of 6

c1ccc(-c2c[n+]3ccccc3n2-c2ccccc2)cc1
survivor count [4]: 0 of 6 | survivor count [5]: 0 of 6 | survivor count [1]: 0 of 6 | survivor count [6]: 0 of 6 | survivor count [7]: 0 of 6
